These results are taken from article doi:10.1101/2020.02.20.955922.

The target in this test is T1, TSN2-TAPa (Tudor Staphylococcal Nuclease 2 with C-terminal TAPa tag) (Arabidopsis thaliana) (UniProt Q9FLT0).
T1 sequence: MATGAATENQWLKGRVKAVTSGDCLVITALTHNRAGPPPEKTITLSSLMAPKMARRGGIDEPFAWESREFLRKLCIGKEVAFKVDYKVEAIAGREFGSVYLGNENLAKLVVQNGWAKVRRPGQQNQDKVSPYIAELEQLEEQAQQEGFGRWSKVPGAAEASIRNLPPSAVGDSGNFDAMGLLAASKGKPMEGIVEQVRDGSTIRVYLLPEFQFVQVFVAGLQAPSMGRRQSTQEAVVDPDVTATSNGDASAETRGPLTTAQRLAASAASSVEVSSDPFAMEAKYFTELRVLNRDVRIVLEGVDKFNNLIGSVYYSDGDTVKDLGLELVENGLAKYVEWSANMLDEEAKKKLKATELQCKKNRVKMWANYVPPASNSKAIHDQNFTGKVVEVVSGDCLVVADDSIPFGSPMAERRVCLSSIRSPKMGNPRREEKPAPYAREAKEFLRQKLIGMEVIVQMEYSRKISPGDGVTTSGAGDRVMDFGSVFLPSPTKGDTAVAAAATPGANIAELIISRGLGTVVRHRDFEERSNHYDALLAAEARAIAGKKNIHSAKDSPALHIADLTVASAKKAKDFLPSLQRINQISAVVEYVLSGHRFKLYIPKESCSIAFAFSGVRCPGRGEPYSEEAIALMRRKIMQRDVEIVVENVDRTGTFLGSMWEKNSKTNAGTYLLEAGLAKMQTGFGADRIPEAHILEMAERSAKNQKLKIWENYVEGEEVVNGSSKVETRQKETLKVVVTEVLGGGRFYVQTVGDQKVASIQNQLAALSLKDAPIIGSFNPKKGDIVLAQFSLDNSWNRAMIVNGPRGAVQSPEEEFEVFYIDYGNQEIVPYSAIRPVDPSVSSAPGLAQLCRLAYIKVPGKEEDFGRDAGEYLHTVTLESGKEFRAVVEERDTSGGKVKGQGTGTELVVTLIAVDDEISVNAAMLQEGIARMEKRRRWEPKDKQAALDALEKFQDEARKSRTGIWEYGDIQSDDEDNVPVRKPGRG
Put plainly: affinity purification with mass spectrometry.

These are yes or no findings as the source states them, for the method shown. In cells and extracts the contact can be indirect. A yes stands for co-enrichment or nearness to the bait. Other partners may have been found. Where a sequence is shown, tags or fusion partners need not be part of it.

For the molecule IF4A3, the binding result is “binds”.
Take PATL1: the binding result is listed as “binds”.
On to TCTP, for which the binding result is on record as “binds”.
For SKP1, the binding result was “binds”.
Turning to Rbp47, the binding result is “binds”.
Under HSP70 stands “binds”.
For RPS6, the binding entry is listed as “binds”.
To MC1 belongs “binds”.

B1: VCS (protein, UniProt Q9LTT8 1-1344)
chain: MASSPGNTNPHNTPPFDLGILFKPSSNPYPPPAASYPPPTGPFLHNQYDQQHYAPPGISAQPSPVTQQQQDVSSSSAATNLHPQRTLSYPTPPLNLQSPRSNHNPGTHILALLNNTNNGAPVANQEPSHQLPVVNHNEIARSFPGGSGPIRVPSCKLPKGRRLIGEHAVYDVDVRLQGEIQPQLEVTPITKYGSDPQLVVGRQIAVNKVYICYGLKGGNIRVLNINTALRSLFRGHSQRVTDMAFFAEDVDMLASVSLDGKVFVWKISEGSEGEDQPQITGKIVLALQILGEEDTKHPRVCWHCHKQEILVVSIGKHVLRIDTTKVGRGEVFSAEAPLQCPLDKLIDGVQIVGKHDGEVTDLSMCQWMTTRLVSSSVDGTIKIWQDRKAQPLVVLRPHDGHPVSSATFVTSPERPDHIILITGGPLNREMKIWVSAGEEGWLLPADAESWRCTQTLDLKSSTEPRAEEAFFNQVIALSEAGLLLLANAKRNALYAVHLDYGSSPVGTRMDYLSEFTVTMPILSFIGTNDPPEEPIVKVYCVQTLAIQQYTLDLCLCLPPPIENMGLEKSDSSVSREANLVEGMSEPSGLKPTDLPSVDSVPKPSIIVNRSESANKLSFPSAEATSQAIVPPNGEPKTSGLPSQTSGAGSAYATLPQLPLSPRLSSKLSGYHTPVEAIEPVIPHHELGGKTPSADYSVDRQMDAVGERNLDVSSVEEISRSKDSNVTPDDDVSGMRSPSAFFKHPTHLVTPSEILMGVSSAEASITTEDRRDRDANIQDVNNDPRDTEVEVKEISEARSTQNGEINDHDETENCTSENREKVFCSQVSNLSTEMARDCYPSTEGTFIPGESKAYGQPIKAGDESGVDSRGGPAKLLKGKKQKAKNSQGPGLSSTSSNVANLADSFNEQSQSLSHPMTDLLPQLLAMQETMNQVMASQKEMQRQLSNAATGPIGKESKRLEVALGRMIEKSSKSNADALWARIQEETVKNEKALRDHAQQIVNATTNFMSKELNAMFEKTIKKELAAIGPALARSVVPVIEKTVSSAITESFQRGIGDKAVNQLDKSVNIKLEATVARQIQAQFQTSGKQALQEGLRSSVESSVIPSFEKACKAMFDQIDSAFQKGIAEHTNAAQQRFDSGHSQLAHTLKESITSASSVAQALSRELAETQRNLLALAAAGANSGGSNSLVTQLSGGPLGALLEKVEAPMDPTTELSRLISERKYEESFTSALQRSDVSIVSWLCSQVDLRGLLAMNPLPLSQGVLLSLLQQLACDISKDTSRKLAWMTDVVAAINPSDQMIAVHARPIFEQVYQILHHHRNAPGSDVSAIRLIMHVINSMLMGCK
For the molecule B1, the binding result is reported as “binds”.

B2: TSN1 (endogenous) (protein, UniProt Q8VZG7 1-991)
chain: MATGAENQWLKGRVKAVTSGDCLVITALSHNRAGPPPEKTITFSSLMAPKMARRGGIDEPFAWESKEFLRKLCIGKEVAFKVDYKVEAIAGREFGSVFLGNENLAKLVVKTGWAKVREPGQQNQDKVSPYIKELLQLEELAKQEGYGRWSKVPGAAEASIRNLPPSAIGDSAGFDAMGLLAANKGKPMEGIVEQVRDGSTIRVYLLPEFQFVQVFVAGVQAPSMGRRTTNGSVVETVPDEPNGDVSAESRGPLTTAQRLAASAASSVEVSSDPFATEAKYFTEHRVLSRDVRIVLEGVDKFNNLIGSVHYSDGETVKDLGLELVENGLAKFVEWSANMMEEEAKKKLKAAELQCKKDKVKMWANYVPPATNSKAIHDQNFTGKVVEVVSGDCLIVADDAVPFGSPAAERRVCLSSIRSPKMGNPRREEKPAPYAREAREFLRQRLIGKQVIVQMEYSRKVTQGDGPTTSGAADRFMDFGSVFLPSAAKADSDEVTAPPAAAIAGSQPVGVNIAELVLVRGFGNVVRHRDFEERSNHYDALLAAEARALAGKKGIHSAKESPAMHITDLTVSAAKKAKDFLPSLQRIRRIPAVVEYVLSGHRFKLYIPKITCSIAFSFSGVRCPGRGEPYSEEAISVMRRRIMQRDVEIEVETVDRTGTFLGSMWESRTNVATVLLEAGLAKMQTSFGADRIAEAHLLEQAERSAKNQKLKIWENYVEGEEVSNGNTNTVETRQKETLKVVVTEVLGGGRFYVQSAGDQKIASIQNQLASLSIKDAPIIGSFNPKRGDIVLAQFSLDNSWNRAMIVTAPRAAVQSPDEKFEVFYIDYGNQETVPYSAIRPIDPSVSAAPGLAQLCRLAYIKVPSLEDDFGPEAGEYLHTVTLGSGKEFKAVIEERDTSGGKVKGQGTGTEFVVTLIAVDDEISVNAAMLQEGIARMEKRQKWGHKGKQAALDALEKFQEEARKSRIGIWQYGDIESDDEDTGPARKPAGGRR
Regarding B2, the binding entry is given as “binds”.

B3: IF4E5 (protein, UniProt Q9FK59 1-221)
chain: MEVLDRRDDEIRDSGNMDSIKSHYVTDSVSEERRSRELKDGDHPLRYKFSIWYTRRTPGVRNQSYEDNIKKMVEFSTVEGFWACYCHLARSSLLPSPTDLHFFKDGIRPLWEDGANCNGGKWIIRFSKVVSARFWEDLLLALVGDQLDDADNICGAVLSVRFNEDIISVWNRNASDHQAVMGLRDSIKRHLKLPHAYVMEYKPHDASLRDNSSYRNTWLRG
For the molecule B3, the binding result was “binds”.

B4: SnRK1.2 (endogenous) (protein, UniProt P92958 1-512)
chain: MDHSSNRFGNNGVESILPNYKLGKTLGIGSFGKVKIAEHVVTGHKVAIKILNRRKIKNMEMEEKVRREIKILRLFMHPHIIRQYEVIETTSDIYVVMEYVKSGELFDYIVEKGRLQEDEARNFFQQIISGVEYCHRNMVVHRDLKPENLLLDSRCNIKIADFGLSNVMRDGHFLKTSCGSPNYAAPEVISGKLYAGPEVDVWSCGVILYALLCGTLPFDDENIPNLFKKIKGGIYTLPSHLSSEARDLIPRMLIVDPVKRITIPEIRQHRWFQTHLPRYLAVSPPDTVEQAKKINEEIVQEVVNMGFDRNQVLESLRNRTQNDATVTYYLLLDNRFRVPSGYLESEFQETTDSGSNPMRTPEAGASPVGHWIPAHVDHYGLGARSQVPVDRKWALGLQSHAHPREIMNEVLKALQELNVCWKKIGHYNMKCRWVPGLADGQNTMVNNQLHFRDESSIIEDDCAMTSPTVIKFELQLYKAREEKYLLDIQRVNGPQFLFLDLCAAFLTELRVI
For the molecule B4, the binding result is “binds”.

B5: RHM2 (protein, UniProt Q9LPG6 1-667)
chain: MDDTTYKPKNILITGAAGFIASHVANRLIRNYPDYKIVVLDKLDYCSDLKNLDPSFSSPNFKFVKGDIASDDLVNYLLITENIDTIMHFAAQTHVDNSFGNSFEFTKNNIYGTHVLLEACKVTGQIRRFIHVSTDEVYGETDEDAAVGNHEASQLLPTNPYSATKAGAEMLVMAYGRSYGLPVITTRGNNVYGPNQFPEKMIPKFILLAMSGKPLPIHGDGSNVRSYLYCEDVAEAFEVVLHKGEIGHVYNVGTKRERRVIDVARDICKLFGKDPESSIQFVENRPFNDQRYFLDDQKLKKLGWQERTNWEDGLKKTMDWYTQNPEWWGDVSGALLPHPRMLMMPGGRLSDGSSEKKDVSSNTVQTFTVVTPKNGDSGDKASLKFLIYGKTGWLGGLLGKLCEKQGITYEYGKGRLEDRASLVADIRSIKPTHVFNAAGLTGRPNVDWCESHKPETIRVNVAGTLTLADVCRENDLLMMNFATGCIFEYDATHPEGSGIGFKEEDKPNFFGSFYSKTKAMVEELLREFDNVCTLRVRMPISSDLNNPRNFITKISRYNKVVDIPNSMTVLDELLPISIEMAKRNLRGIWNFTNPGVVSHNEILEMYKNYIEPGFKWSNFTVEEQAKVIVAARSNNEMDGSKLSKEFPEMLSIKESLLKYVFEPNKRT
As for B5, the binding result is “binds”.

B6: UBP1c (protein, UniProt Q9LJH8 1-427)
chain: MQNPRLKQHQQQQQQQAMMQQQALMQQHSLYHPGVLAPPQLEPVPSGNLPPGFDPSTCRSVYVGNIHTQVTEPLLQEIFTSTGPVESSKLIRKDKSSYGFVHYFDRRSAALAILSLNGRHLFGQPIKVNWAYATGQREDTSSHFNIFVGDLSPEVTDATLYQSFSVFSSCSDARVMWDQKTGRSRGFGFVSFRNQQDAQTAINEMNGKWLSSRQIRCNWATKGATSGDDKLSSDGKSVVELTTGSSEDGKETLNEETPENNSQFTTVYVGNLAPEVTQLDLHRYFHALGAGVIEEVRVQRDKGFGFVRYNTHPEAALAIQMGNTQPYLFNRQIKCSWGNKPTPPGTASNPLPPPAPAPVPGLSAADLLNYERQLALSKMASVNALMHQQGQHPLRQAHGINAAGATAAMYDGGFQNVAAAQQLMYYQ
For B6, the binding result is recorded as “binds”.

B7: SnRK1.1 (endogenous) (protein, UniProt Q38997 1-512)
chain: MDGSGTGSRSGVESILPNYKLGRTLGIGSFGRVKIAEHALTGHKVAIKILNRRKIKNMEMEEKVRREIKILRLFMHPHIIRLYEVIETPTDIYLVMEYVNSGELFDYIVEKGRLQEDEARNFFQQIISGVEYCHRNMVVHRDLKPENLLLDSKCNVKIADFGLSNIMRDGHFLKTSCGSPNYAAPEVISGKLYAGPEVDVWSCGVILYALLCGTLPFDDENIPNLFKKIKGGIYTLPSHLSPGARDLIPRMLVVDPMKRVTIPEIRQHPWFQAHLPRYLAVPPPDTVQQAKKIDEEILQEVINMGFDRNHLIESLRNRTQNDGTVTYYLILDNRFRASSGYLGAEFQETMEGTPRMHPAESVASPVSHRLPGLMEYQGVGLRSQYPVERKWALGLQSRAHPREIMTEVLKALQDLNVCWKKIGHYNMKCRWVPNSSADGMLSNSMHDNNYFGDESSIIENEAAVKSPNVVKFEIQLYKTRDDKYLLDLQRVQGPQFLFLDLCAAFLAQLRVL
With B7, the binding entry is “binds”.
